# In article PMC7554342:
# By UniProt entry, the sequences of proteins in these tests, tags left out.
# UniProt A0ACM8QAS8: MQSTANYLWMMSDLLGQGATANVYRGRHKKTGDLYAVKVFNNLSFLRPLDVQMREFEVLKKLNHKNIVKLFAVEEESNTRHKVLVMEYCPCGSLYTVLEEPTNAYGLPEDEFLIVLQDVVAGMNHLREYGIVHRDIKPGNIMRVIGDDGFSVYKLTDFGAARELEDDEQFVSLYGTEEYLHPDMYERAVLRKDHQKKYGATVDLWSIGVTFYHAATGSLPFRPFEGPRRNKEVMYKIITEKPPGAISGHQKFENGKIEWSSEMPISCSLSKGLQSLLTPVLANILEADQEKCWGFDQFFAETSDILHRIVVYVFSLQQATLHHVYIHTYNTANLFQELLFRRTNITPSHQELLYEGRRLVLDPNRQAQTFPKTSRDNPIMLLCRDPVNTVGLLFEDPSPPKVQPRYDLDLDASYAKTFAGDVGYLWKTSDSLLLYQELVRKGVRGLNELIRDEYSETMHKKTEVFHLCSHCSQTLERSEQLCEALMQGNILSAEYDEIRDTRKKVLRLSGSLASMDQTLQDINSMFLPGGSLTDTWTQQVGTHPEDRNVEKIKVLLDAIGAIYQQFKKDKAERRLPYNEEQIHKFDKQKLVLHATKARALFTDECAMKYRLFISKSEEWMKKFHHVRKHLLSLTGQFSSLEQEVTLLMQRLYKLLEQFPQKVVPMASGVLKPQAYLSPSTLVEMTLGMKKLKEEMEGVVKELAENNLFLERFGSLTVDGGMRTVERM
# No constants are given. Whether binding was seen depends on the method and setting. Binding seen in cells or lysates may run through a third protein. Some results given as binding are weak or reduced against the parent protein; the word gives no strength.
# Target: zebrafish TBK1-FLAG (p3 × FLAG-TBK1) (zebrafish)
# Experiment: co-IP; anti-FLAG-conjugated agarose beads (FLAG-Tagged Protein Immunoprecipitation Kit) on lysates of EPC cells 48 h after co-transfection, with or without co-expressed TBK1_tv3-GFP; agarose washed 8-10 times; blots with anti-FLAG and anti-pTurboGFP
substance,measurement,value
zebrafish TBK1-GFP (pTurbo-TBK1-GFP) (from UniProt A0ACM8QAS8 1-727) (enzyme),binding,binds
